## Library screening results

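Viability assay of Plasmodium falciparum sporozoites; the read-out is not stated. The concentration is filed as 10 mM, unlikely as a test dose, so the dose is not known. The record gives no direction; compounds that gave an IC50 in retests scored well above the rest, so higher reads as lower viability. Strong results were mostly tested again. Of about 34,000 compounds tested this way, about 280 (0.84%) reached 50% or more in at least one test.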

Each number is a percent effect as filed. The controls that fix the scale are not given in the record; negative values are as filed. The compounds are a random part of those screened. Two or more numbers in one place are separate tests of the same structure; such repeats can differ widely.

SMILES,Percent Effect
Cc1cnn(CC2CCCN2C(=O)c2cccc(S(C)(=O)=O)c2)c1 (configuration not stated),17.69%
O=C(NC1CC1)N1CCOCC2(C1)CN(c1ccccc1)C(=O)CO2 (configuration not stated),20.4% and -6.53% and -24.67%
CCOCCOC(C)C(=O)NCc1cn2cc(Cl)ccc2n1 (configuration not stated),7.353%
CC(C)N1CCn2c(nc3cc(C(N)=O)ccc32)C1,-5.482%
O=C(Nc1cccnc1)c1nn(C2CCS(=O)(=O)C2)c2c1CCCC2 (configuration not stated),0.1812% and 16.96%
CCCNC(=O)C(C)Nc1ccn(Cc2ccccn2)n1 (configuration not stated),-2.829%
Cc1nc(COC[C@H]2CCC[C@]23CN(C2CCOC2)CCO3)cs1 (some centres not stated),-7.015%
CC(=O)N1CCCN(C(=O)c2csc(-c3ccc(C)cc3C)n2)CC1,3.759%
CC(Oc1ccccc1C(F)(F)F)C(=O)NCCC(=O)N(C)C (configuration not stated),-1.804%
CCOCC1CN(C(=O)c2cnoc2C)Cc2cnn(C)c21.O=C(O)C(F)(F)F (configuration not stated),1.518%
[H][C@]12OCCN(C(=O)COc3ccccc3)[C@@]1([H])CC[C@@H]2OCC,9.806%
CNC(=O)Cc1cc2nccc(-c3c(OC)cccc3OC)n2n1,-10.25%
CNc1cc2c(nn1)CCN(C(=O)c1cccc3c1OCCO3)C2,6.648%
Cc1cnn(C2CCCN(C(=O)Cc3n[nH]c4ccccc34)C2)c1 (configuration not stated),17.17%
CC(=O)N1CCc2[nH]nc(C(=O)N3CCOCC3)c2C1,-8.554%
N[C@H]1CC[C@@H](CN2CCCn3nc(CNC(=O)C4CCC4)cc3C2)CC1,2.193%
CCN1C(=O)C2(CCCCC2)NC12CCSCC2,-3.552%
Cc1nnc(N2CCCC(C(=O)c3cccc(Cl)c3)C2)o1 (configuration not stated),-4.491%
CN(C)C(=O)N1CCOCC2(CCN(c3ccccn3)C2)C1.O=C(O)C(F)(F)F (configuration not stated),3.922%
O=C(NCc1nc(-c2ncccn2)no1)c1ccc(C2CCCO2)s1 (configuration not stated),-5.261% and 26.15% and 2.635%
O=C(O)C(F)(F)F.[H][C@@]12CCN(Cc3ccco3)[C@]1([H])CC[C@@H](C(=O)NCC1CC1)O2,10.26%
COc1ncc(C2(O)CCN(Cc3ccccc3O)CC2)c(OC)n1,5.889%
Cn1ccnc1CN(Cc1ccccn1)Cc1ccccc1Cl.O=C(O)CC(O)(CC(=O)O)C(=O)O,2.685%
Cc1nn(C)cc1CN1CCc2c(nc(-c3ccccn3)[nH]c2=O)C1,8.767%
CNS(=O)(=O)c1cccc(C(C)NCc2ccc(C)o2)c1 (configuration not stated),-18.11%
[H][C@@]12C[C@@H](Oc3ccccc3)C[C@]1([H])CN(Cc1cnc(C)cn1)C2,17.61%
CC(C)N1CCC(CC(=O)NC(C(=O)O)c2ccc(F)cc2)CC1 (configuration not stated),-2.095%
COC(=O)c1ccc2ccn(CC3CCNC3)c(=O)c2c1 (configuration not stated),1.063%
CC(C)c1ncc(CN2CCC(c3n[nH]cc3C(=O)N(C)C)C2)cn1 (configuration not stated),-2.749%
Cc1cnn(C2CCCN(C(=O)c3cccc(-n4cnnn4)c3)C2)c1 (configuration not stated),6.936%
O=C(O)C(F)(F)F.O=C(O)C(F)(F)F.O=C(O)C(F)(F)F.[H][C@]12CC(=O)N(Cc3cccc(C)n3)[C@@]1([H])CCN2Cc1ccccn1,8.149%
Cn1cccc1C(=O)N1CCC2(CCN2c2ncccn2)C1.O=C(O)C(F)(F)F (configuration not stated),-5.373%
Cc1ccc(NC2CCN(C(=O)Cc3ccc(C)s3)CC2)nn1,10.34%
CN1C(=O)CCCC12CCCN(C(=O)c1cccc(C(F)(F)F)c1)C2 (configuration not stated),8.123%
CC(C)c1cc(NCC(O)c2ccc(F)cc2)n2nccc2n1 (configuration not stated),-10.24%
COc1ccc(-c2cc3nc([C@H](C)NC(=O)C4CC4)nn3cn2)cc1,-1.092%
CSc1ccccc1C(=O)Nc1ccc(OC2CCN(C)CC2)cc1,86.05% and 73.83% and 74.05%
O=C(O)C(F)(F)F.O=C(O)C(F)(F)F.[H][C@@]12C[C@H](C(=O)NC(C)C)CN(Cc3ccc4ccccc4n3)[C@]1([H])CCO2,-21.88% and -5.951% and 4.897%
O=C(NCCN1CCCc2ccccc21)c1scnc1Cl,-5.46%
O=C(N1CCOCC1)N1CCc2ncnc(NC3CCC3)c2CC1.O=C(O)C(F)(F)F,-12.27%
CC1CCN(CCNC(=O)c2scnc2Cl)CC1,2.603%
O=C(O)C(F)(F)F.[H][C@@]12OCCN(C(=O)c3ccoc3C)[C@@]1([H])CC[C@@H]2Oc1ccccn1,-12.34%
CC(C)(C)c1nc(CN2CCCC(Cn3cncn3)C2)cs1 (configuration not stated),11.2%
CN(C)c1ncc(C2Nc3cc(Cl)ccc3C3=NCCCN32)cn1.Cl (configuration not stated),2.836%
CC(=O)N1CCN(c2ccnc3c(F)cc(Br)cc23)CC1,-0.1304%
[H][C@]12CC[C@]([H])(CN(c3ncccn3)C1)N(C(=O)c1ccccc1C#N)C2,6.053%
Brc1cnc(NCCCOC2CCOCC2)nc1,-12.99%
[H][C@@]12CS(=O)(=O)C[C@]1([H])N(C(=O)c1cnccn1)CCN2C(=O)C1CCC1,-14.94%
[H][C@@]12C[C@H](C(=O)NC(C)C)[C@@]([H])(CN(C(=O)Nc3ccc(CC)cc3)C1)O2,-5.565%
O=C(O)c1cc(S(=O)(=O)Nc2ccc(Cl)cc2)cc2c1OCCO2,-4.535%
CCN(Cc1noc(C2CCC2)n1)C(=O)c1cn2ccsc2n1,-19.85%
Cc1cc(-c2ccc(=O)n(CCNC(=O)C3CC3)n2)c(C)o1,2.727%

5 of the entries, repeated:

SMILES	Percent Effect
[H][C@@]12C[C@@H](Oc3ccccc3)C[C@]1([H])CN(Cc1cnc(C)cn1)C2	17.61%
O=C(O)C(F)(F)F.[H][C@@]12CCN(Cc3ccco3)[C@]1([H])CC[C@@H](C(=O)NCC1CC1)O2	10.26%
O=C(O)C(F)(F)F.O=C(O)C(F)(F)F.O=C(O)C(F)(F)F.[H][C@]12CC(=O)N(Cc3cccc(C)n3)[C@@]1([H])CCN2Cc1ccccn1	8.149%
CC(C)N1CCn2c(nc3cc(C(N)=O)ccc32)C1	-5.482%
O=C(O)C(F)(F)F.O=C(O)C(F)(F)F.[H][C@@]12C[C@H](C(=O)NC(C)C)CN(Cc3ccc4ccccc4n3)[C@]1([H])CCO2	-21.88% and -5.951% and 4.897%

Source: ChEMBL document CHEMBL3988442, “University of Dundee, Small-Polar-MMV Screening Library” (2021).